The list is a part of this screen's results and no random one: it is rich in T/C values a quarter to a half above the control, in often repeated tests (any T/C) and in doses without a T/C. Other doses and runs of a compound stand elsewhere. T/C: endpoint of the treated group in % of that of the vehicle group. Some entries give survivors of the animals treated and no T/C: the source holds a T/C of zero for them, seemingly a mark for toxic or unscored doses. Some doses without a T/C left all or most animals alive at the check, yet need not have been tolerated: survival well below the control is almost never listed, so the zero probably covers shortened survival too. Survivors were counted at the toxicity check, usually on the fifth day, unless a day is given; later deaths do not show. Schedules are NCI's codes, taken here to give the interval after Q, in days (D) or hours (H), and the number of doses after X. Some schedule codes hold Z or #, which are not explained here. For survival time, the PubChem record calls one and a half times the control and up active, and a quarter to a half above the control has no call in these data; cut-offs in other NCI protocols can differ. Some entries were tested several times; their values stand side by side, smallest first. Brackets with × count equal records among those shown. Some T/C values carry the count of animals alive at the toxicity check (mostly the fifth day); where none is given, no animal had died by that day.
Tested on: L1210 leukemia ip in BDF1 mice, survival T/C
Assay: NCI In Vivo Anticancer Drug Screen. Data for tumor model L1210 Leukemia (intraperitoneal) in B6D2F1 (BDF1) mice
Conditions: T/C endpoint: mean survival time, higher T/C = longer survival
[1] = dose: 0.25 mg/kg/injection, schedule: Q#A X Z (ip), vehicle: saline
[2] = dose: 0.5 mg/kg/injection, schedule: Q#A X Z (ip), vehicle: saline
[3] = dose: 2.0 mg/kg/injection, schedule: Q01DX Z (ip), vehicle: saline

## Nc1nc(=S)c2[nH]cnc2[nH]1
dose: 0.06 mg/kg/injection, schedule: Q01DX Z (ip), vehicle: carboxymethylcellulose (CMC)
  T/C: 125 % of control
dose: 0.09 mg/kg/injection, schedule: Q01DX Z (ip), vehicle: carboxymethylcellulose (CMC)
  T/C: 131 % of control
dose: 0.12 mg/kg/injection, schedule: Q01DX009 (ip), vehicle: alkali diluted with saline
  T/C: 131 % of control
dose: 0.12 mg/kg/injection, schedule: Q#A X Z (ip), vehicle: saline
  T/C: 125 % of control
dose: 0.14 mg/kg/injection, schedule: Q01DX Z (ip), vehicle: carboxymethylcellulose (CMC)
  T/C: 125 % of control
dose: 0.16 mg/kg/injection, schedule: Q03HX024 (ip), vehicle: alkali diluted with saline, evaluated on day 5
  T/C: 125 % of control
dose: 0.16 mg/kg/injection, schedule: Q03HX024 (ip), vehicle: alkali diluted with saline, evaluated on day 60
  T/C: 125 % of control
dose: 0.22 mg/kg/injection, schedule: Q01DX Z (ip), vehicle: carboxymethylcellulose (CMC)
  T/C: 142 % of control
dose: 0.23 mg/kg/injection, schedule: Q01DX009 (ip), vehicle: alkali diluted with saline
  T/C: 125 and 134 % of control
dose: 0.24 mg/kg/injection, schedule: Q03HX024 (ip), vehicle: alkali diluted with saline, evaluated on day 5
  T/C: 127 % of control
dose: 0.24 mg/kg/injection, schedule: Q03HX024 (ip), vehicle: alkali diluted with saline, evaluated on day 60
  T/C: 127 % of control
dose: 0.24 mg/kg/injection, schedule: Q03HX032 (ip), vehicle: alkali diluted with saline
  T/C: 134 % of control
dose: 0.25 mg/kg/injection, schedule: Q01DX Z (ip), vehicle: saline
  T/C: 130 % of control
[1]
  T/C: 133 % of control
  survivor count: 6 of 6
dose: 0.33 mg/kg/injection, schedule: Q01DX015 (ip), vehicle: alkali diluted with saline, evaluated on day 5
  T/C: 132 % of control
dose: 0.33 mg/kg/injection, schedule: Q01DX015 (ip), vehicle: alkali diluted with saline, evaluated on day 45
  T/C: 130 % of control
dose: 0.36 mg/kg/injection, schedule: Q03HX024 (ip), vehicle: alkali diluted with saline, evaluated on day 5
  T/C: 137 % of control
dose: 0.36 mg/kg/injection, schedule: Q03HX024 (ip), vehicle: alkali diluted with saline, evaluated on day 60
  T/C: 137 % of control
dose: 0.39 mg/kg/injection, schedule: Q03HX008 (ip), vehicle: alkali diluted with saline
  T/C: 139 % of control
dose: 0.4 mg/kg/injection, schedule: Q01DX015 (ip), vehicle: alkali diluted with saline
  T/C: 145 % of control
dose: 0.44 mg/kg/injection, schedule: Q01DX015 (ip), vehicle: alkali diluted with saline, evaluated on day 5
  T/C: 134, 140, 152, 160, 181 % of control
dose: 0.44 mg/kg/injection, schedule: Q01DX015 (ip), vehicle: alkali diluted with saline, evaluated on day 45
  T/C: 128, 135, 181 % of control
dose: 0.44 mg/kg/injection, schedule: Q## X015 (ip), vehicle: alkali diluted with saline
  T/C: 134 % of control
dose: 0.45 mg/kg/injection, schedule: Q01DX009 (ip), vehicle: alkali diluted with saline
  T/C: 121, 136, 137, 140 % of control
dose: 0.5 mg/kg/injection, schedule: Q01DX Z (ip), vehicle: saline
  T/C: 142, 143, 158, 170 % of control
dose: 0.5 mg/kg/injection, schedule: Q01DX Z (sc), vehicle: saline
  T/C: 127 and 138 % of control
[2]
  T/C: 137 % of control
  survivor count: 3 of 6
dose: 0.54 mg/kg/injection, schedule: Q03HX024 (ip), vehicle: alkali diluted with saline, evaluated on day 5
  T/C: 138 % of control
dose: 0.54 mg/kg/injection, schedule: Q03HX024 (ip), vehicle: alkali diluted with saline, evaluated on day 60
  T/C: 138 % of control [9 of 10 alive]
dose: 0.6 mg/kg/injection, schedule: Q01DX015 (ip), vehicle: alkali diluted with saline
  T/C: 147 % of control
dose: 0.67 mg/kg/injection, schedule: Q01DX015 (ip), vehicle: alkali diluted with saline, evaluated on day 5
  T/C: 157, 163, 183 (2×), 187 % of control
dose: 0.67 mg/kg/injection, schedule: Q01DX015 (ip), vehicle: alkali diluted with saline, evaluated on day 45
  T/C: 120, 176, 187 % of control
dose: 0.74 mg/kg/injection, schedule: Q01DX013 (ip), vehicle: saline
  T/C: 140 % of control
dose: 0.81 mg/kg/injection, schedule: Q03HX024 (ip), vehicle: alkali diluted with saline, evaluated on day 5
  T/C: 137 % of control
dose: 0.81 mg/kg/injection, schedule: Q03HX024 (ip), vehicle: alkali diluted with saline, evaluated on day 60
  T/C: 137 % of control
dose: 0.83 mg/kg/injection, schedule: Q01DX015 (ip), vehicle: alkali diluted with saline
  T/C: 142 % of control
dose: 0.88 mg/kg/injection, schedule: Q07DX003 (ip), vehicle: saline
  T/C: 129 and 139 % of control
dose: 0.9 mg/kg/injection, schedule: Q01DX009 (ip), vehicle: alkali diluted with saline
  T/C: 148, 160, 163, 182 % of control
dose: 1.0 mg/kg/injection, schedule: Q01DX015 (ip), vehicle: alkali diluted with saline, evaluated on day 5
  T/C: 162, 168, 171, 178, 198 % of control
dose: 1.0 mg/kg/injection, schedule: Q01DX015 (ip), vehicle: alkali diluted with saline, evaluated on day 45
  T/C: 174, 198, 202 % of control
dose: 1.0 mg/kg/injection, schedule: Q01DX Z (im), vehicle: saline
  T/C: 133 % of control
dose: 1.0 mg/kg/injection, schedule: Q01DX Z (ip), vehicle: saline
  T/C: 91 [5 of 6 alive], 137, 138, 158 % of control
dose: 1.0 mg/kg/injection, schedule: Q01DX Z (sc), vehicle: saline
  T/C: 133 and 140 % of control
dose: 1.0 mg/kg/injection, schedule: Q#A X Z (ip), vehicle: saline
  survivor count: 3 of 6
dose: 1.2 mg/kg/injection, schedule: Q01DX009 (ip), vehicle: alkali diluted with saline
  T/C: 148 % of control
dose: 1.25 mg/kg/injection, schedule: Q01DX010 (ip), vehicle: other
  T/C: 139 % of control
dose: 1.35 mg/kg/injection, schedule: Q03HX032 (ip), vehicle: alkali diluted with saline, evaluated on day 5
  T/C: 137 % of control
dose: 1.35 mg/kg/injection, schedule: Q03HX032 (ip), vehicle: alkali diluted with saline, evaluated on day 45
  T/C: 137 % of control
dose: 1.47 mg/kg/injection, schedule: Q01DX009 (ip), vehicle: alkali diluted with saline
  T/C: 145 % of control
dose: 1.47 mg/kg/injection, schedule: Q01DX Z (ip), vehicle: carboxymethylcellulose (CMC)
  T/C: 139 % of control
dose: 1.5 mg/kg/injection, schedule: Q01DX015 (ip), vehicle: alkali diluted with saline, evaluated on day 5
  T/C: 155, 159, 160, 169, 173 % of control
dose: 1.5 mg/kg/injection, schedule: Q01DX015 (ip), vehicle: alkali diluted with saline, evaluated on day 45
  T/C: 173, 185, 196 % of control
dose: 1.5 mg/kg/injection, schedule: Q03DX006 (ip), vehicle: saline
  T/C: 137 % of control
dose: 1.5 mg/kg/injection, schedule: Q04DX012 (ip), vehicle: alkali diluted with saline
  T/C: 135 % of control
dose: 1.6 mg/kg/injection, schedule: Q01DX Z (ip), vehicle: carboxymethylcellulose (CMC)
  T/C: 147 % of control
dose: 1.8 mg/kg/injection, schedule: Q01DX009 (ip), vehicle: alkali diluted with saline, evaluated on day 30
  T/C: 170, 199, 228, 267 % of control
dose: 1.8 mg/kg/injection, schedule: Q01DX009 (ip), vehicle: alkali diluted with saline, evaluated on day 45
  T/C: 148 and 161 % of control
dose: 1.8 mg/kg/injection, schedule: Q04DX002 (ip), vehicle: alkali diluted with saline
  T/C: 143 % of control
dose: 1.96 mg/kg/injection, schedule: Q01DX Z (ip), vehicle: carboxymethylcellulose (CMC)
  T/C: 147 % of control
dose: 2.0 mg/kg/injection, schedule: Q01DX006 (iv), vehicle: saline
  T/C: 145 % of control
dose: 2.0 mg/kg/injection, schedule: Q01DX Z (im), vehicle: saline
  T/C: 137 % of control
dose: 2.0 mg/kg/injection, schedule: Q01DX Z (ip), vehicle: carboxymethylcellulose (CMC)
  T/C: 131 and 146 % of control
[3]
  T/C: 142 % of control
  survivor count: 5 of 6
dose: 2.0 mg/kg/injection, schedule: Q01DX Z (oral), vehicle: saline
  T/C: 133 and 148 % of control
dose: 2.0 mg/kg/injection, schedule: Q01DX Z (sc), vehicle: saline
  T/C: 135 % of control
dose: 2.0 mg/kg/injection, schedule: Q#A X Z (ip), vehicle: saline
  survivor count: 2 of 6
dose: 2.1 mg/kg/injection, schedule: Q03HX024 (ip), vehicle: alkali diluted with saline
  T/C: 145 % of control
dose: 2.2 mg/kg/injection, schedule: Q01DX009 (ip), vehicle: alkali diluted with saline
  T/C: 142 % of control
dose: 2.25 mg/kg/injection, schedule: Q01DX015 (ip), vehicle: alkali diluted with saline, evaluated on day 5
  T/C: 129, 159, 169 % of control
dose: 2.25 mg/kg/injection, schedule: Q01DX015 (ip), vehicle: alkali diluted with saline, evaluated on day 45
  T/C: 169 % of control
dose: 2.25 mg/kg/injection, schedule: Q## X015 (ip), vehicle: alkali diluted with saline
  T/C: 129 % of control
dose: 2.3 mg/kg/injection, schedule: Q04DX012 (ip), vehicle: alkali diluted with saline
  T/C: 140 % of control
dose: 2.3 mg/kg/injection, schedule: Q07DX012 (ip), vehicle: alkali diluted with saline
  T/C: 145 % of control
dose: 2.45 mg/kg/injection, schedule: Q01DX Z (ip), vehicle: carboxymethylcellulose (CMC)
  T/C: 130 % of control
dose: 2.5 mg/kg/injection, schedule: Q01DX010 (ip), vehicle: other
  T/C: 141 % of control
dose: 2.5 mg/kg/injection, schedule: Q01DX Z (ip), vehicle: carboxymethylcellulose (CMC)
  T/C: 132 % of control
dose: 3.5 mg/kg/injection, schedule: Q01DX001 (ip), vehicle: saline
  T/C: 148 % of control
dose: 3.5 mg/kg/injection, schedule: Q04DX002 (ip), vehicle: alkali diluted with saline
  T/C: 147 % of control
dose: 3.5 mg/kg/injection, schedule: Q04DX012 (ip), vehicle: alkali diluted with saline
  T/C: 137 % of control
dose: 3.5 mg/kg/injection, schedule: Q07DX008 (ip), vehicle: alkali diluted with saline
  T/C: 146 % of control

Source: PubChem BioAssay AID248 (DTP/NCI, 2004)
